Measurements from paper PMC12874371, “Screening of FDA-Approved Small Molecules to Discover Inhibitors of the Pseudomonas aeruginosa Quorum-Sensing Enzyme, PqsE” (Biochemistry, 2026).

Chains of the proteins cited; added tags and fusions are not shown.
UniProt P20581, whole entry S285W: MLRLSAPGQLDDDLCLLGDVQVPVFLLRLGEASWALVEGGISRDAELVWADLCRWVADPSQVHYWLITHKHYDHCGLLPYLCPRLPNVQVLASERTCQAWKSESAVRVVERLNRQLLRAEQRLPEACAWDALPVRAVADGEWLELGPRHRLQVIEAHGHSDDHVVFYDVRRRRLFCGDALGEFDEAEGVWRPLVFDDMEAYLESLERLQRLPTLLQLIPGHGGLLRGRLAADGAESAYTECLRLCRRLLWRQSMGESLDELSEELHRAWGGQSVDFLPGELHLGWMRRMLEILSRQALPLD

Target: T1, PqsE(S285W) (Pseudomonas aeruginosa, UniProt P20581, S285W)
T1 construct: 6xHis (N); made in house; host or cells: E. coli BL21 (DE3), pET28b-6xHis-pqsE(S285W) (strain IT55)
Format: biochemical
Details: side-by-side with PqsE(WT), Figure 2

In the case of O=c1n(CCCN2CCN(c3cccc(Cl)c3)CC2)nc2ccccn12 [Trazodone], the “IC50 against PqsE(S285W), esterase assay” value is reported as “could not be determined”.
